Reference: patent US4704450 (dated 1987)
The star is where a group is joined. Cbz = O=C(OCc1ccccc1)*; Boc = CC(C)(C)OC(=O)*; OBn = c1ccc(CO*)cc1

Experiment: general procedure: solution-phase peptide synthesis; BOP; active esters (ONp, OTCP, OSu, ONb) with HOBt; NEM or DIPEA
[1] = coupling step, HPLC reverse phase EPP

Row | Substance | step yield (coupling step) | also measured
1 | Boc-QLSA-OMe | – | purity (crude or final not stated) (coupling step, HPLC EPP): 91%
2 | H-SNQE(OBn)RG-OH | 77% | –
3 | Boc-Arg-Lys(Z)-Leu-Leu-Gln-Asp(OBzl)-Ile-Met-Ser-Arg-Gln-Gln-Gly-Glu (OBzl)-Ser-Asn-Gln-Glu(OBzl)-Arg-Gly-Ala-Arg-Ala-Arg-Leu-Nh 2, HCl | 93% | –
4 | Boc-Ile-Phe-Thr-Asn-Ser-Tyr-Arg-Lys(Z)-Val-Leu-Gly-Gln-Leu-Ser-Ala-OCH3, HCl | 86% | crude HPLC purity [1]: 90%; step yield (coupling step, overall): 95%
5 | H-QE(OBn)RG-OH | 76% | –
6 | Z-Ala-Arg (NO2)-Ala-Arg (NO2) Leu-NH2 | 76% | –
7 | Boc-E(OBn)SNQE(OBn)RGARARL-NH2 | 81% | –
8 | Boc-Glu(OBzl)-Arg-Gly-Ala-Arg-Ala-Arg-Leu-NH2, 3 HCl | 80% | crude HPLC purity [1]: 95%
9 | Boc-Tyr-Arg(HCl)-Lys(Z)-Val-Leu-Gly-OCH3 | 96% | crude HPLC purity (coupling step, HPLC EPP): 93.81%
10 | Boc-Tyr-Arg(HCl)-Lys(Z)-Val-Leu-Gly-OH | – | step yield (late stage modification step): 74.7%; purity (crude or final not stated) (late stage modification step, HPLC-EPP): 91.52%
11 | Boc-E(OBn)SNQE(OBn)RG-OH | 80% | –
12 | Boc-K(Cbz)VLG-OMe | 86% | –
13 | Boc-Glu(OBzl)-Ser-Asn-Gln-Glu(OBzl)-Arg-Gly-Ala-Arg-Ala-Arg-Leu-NH2, HCl | 75% | crude HPLC purity [1]: 70%
14 | Arg (NO2)-Ala-Arg (NO2)-Leu-NH2 | 85% | –
15 | Boc-RK(Cbz)LL-OMe | 87% | final HPLC purity (coupling step, HPLC-EPP): 91.8%
16 | Boc-Gln-Asp(OBzl)-Ile-Met-Ser-Arg-Gln-Gln-Gly-Glu(OBzl)-Ser-Asn-Gln-Glu(OBzl)-Arg-Gly-Ala-Arg-Ala-Arg-Leu-NH2, HCl | 100% | –
17 | H-NQE(OBn)RG-OH | 85% | –
18 | Boc-Ser-Arg-Gln-Gln-Gly-OMe, AcOH | – | step yield (late stage modification step): 97.8%
19 | Boc-Tyr-Arg(Z)-Val-Leu-Gly-Gln-Leu-Ser-Ala-OCH3, HCl | 90% | crude HPLC purity [1]: 92%
20 | H-Glu(OBzl)-Arg-Gly-Ala-Arg-Ala-Arg-Leu-NH2, TFA, HCl | – | step yield (late stage modification step): 100%
21 | Boc-E(OBn)SNQ-OH | – | step yield (coupling step, run 1): 90%; step yield (coupling step, run 2): 71.9%
22 | H-Ser-Arg-Gln-Gln-Gly-Glu(OBzl)-Ser-Asn-Gln-Glu(OBzl)-Arg-Gly-Ala-Arg-Ala- Arg-Leu-NH2, TFA, HCl | – | step yield (late stage modification step): 97%
23 | H-Asp(OBzl)-Ile-Met-Ser-Arg-Gln-Gln-Gly-Glu(OBzl)-Ser-Asn-Gln-Glu(OBzl)-Arg-Gly-Ala-Arg-Ala-Arg-Leu-NH2, TFA, HCl | – | step yield (late stage modification step): 100%
24 | Boc-Ser-Arg-Gln-Gln-Gly-Glu(OBzl)-Ser-Asn-Gln-Glu(OBzl)-Arg-Gly-Ala-Arg-Ala-Arg-Leu-NH2, HCl | 80% | –
